Patent publication US11209437B2, “Fluorescent probe and preparation method and use thereof” (Fluorescence Diagnosis (shanghai) Biotech Company Ltd., priority 2016, dated 2021)
Some results were stated once for a whole list of compounds, not compound by compound.

Tests used:
[1] = test system: HeLa cells; assay: Two-color orthogonal labeling of nucleus CLIP tag and mitochondrial SNAP tag in HeLa cells; assay type: cell-based; settings: 0.2 μM probes, two hrs, no washing
[2] = test system: SNAP F33G and SNAP V164E; assay: Labeling of SNAP-tag mutants, quantum yield after fluorescence activation; assay type: biochemical; settings: method of Example 123

SMILES: CN(CCOC(=O)NCc1ccc(COc2nc(N)nc3[nH]cnc23)cc1)c1ccc(/C=C(\C#N)C(=O)OC(C)(C)C)cc1 [probe 1]
- Co-localization coefficient of the nucleus channel (probe 43) and the mitochondria channel (probe 1) [1]: less than 0.1
- Quantum yield after fluorescence activation relative to original SNAP-tag sequence [2]: 2.1 to 1.6 times

SMILES: CN(CCOC(=O)NCc1ccc(COc2nc(N)nc3[nH]cnc23)cc1)c1ccc2nc(/C=C(\C#N)C(=O)OC(C)(C)C)oc2c1 [probe 43]
- Co-localization coefficient of the nucleus channel (probe 43) and the mitochondria channel (probe 1) [1]: less than 0.1

SMILES: CN(CCOC(=O)NCc1ccc(COc2nc(N)nc3[nH]cnc23)cc1)c1cc2sc(/C=C(\C#N)C(=O)OC(C)(C)C)cc2s1 [probe 21]
- Quantum yield after fluorescence activation relative to original SNAP-tag sequence [2]: 2.1 to 1.6 times
